Screening data, single-dose tests

Data taken from ChEMBL document CHEMBL3988442, “University of Dundee, Small-Polar-MMV Screening Library” (2021).

Mtb glucose medium: 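Phenotypic screen: M. tuberculosis growth, glucose 7H9 medium, 3 days; the read-out is not stated. Concentration: 50 µM. The record gives no direction; compounds that gave an IC50 in retests scored well above the rest, so higher reads as more growth inhibition. About 69,000 compounds were tested under these conditions; 1.1% (about 760) showed 50% or more at least once.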
Mtb cholesterol medium: 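Growth of Mycobacterium tuberculosis over 4 days (cholesterol / DPPC medium with tyloxapol); the read-out is not stated. Concentration: 50 µM. Direction is inferred from retests: higher values go with more growth inhibition. Size under these conditions: about 69,000 compounds, about 370 of them at 50% or above in at least one test.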

Results are given as percent effect. The record does not define 0% and 100%; most values in the screen are far below 50% and negative numbers occur (in some assays of this library far below -100). This is an unselected part of the compounds tested. Two or more numbers in one place are separate tests of the same structure; such repeats can differ widely.

Compound	Mtb glucose medium	Mtb cholesterol medium
COc1ccc(CNC(=O)N2CCc3sccc3C2)cc1O	4.499% and -25.14%	-12.71%
COc1cccc(CNC(=O)N2CCN3CCNC(=O)C3C2)c1 (stereo not shown)	-10.7%	-14.11%
O=C(NCC1CCCOC1)c1ccc(-c2ccccc2)[nH]c1=O (stereo not shown)	-4.959% and 10.59%	-22.56%
[H][C@]12CCN(C(=O)Cc3cccc(OC)c3)[C@@]1([H])CCC(=O)N2C	-5.962% and -14.84%	1.369%
CC(=O)NCCNC(=O)CCn1c(C)cc2ccccc21	-13.96%	-0.3982%
O=C(CN1CC(c2nc(-c3ccco3)no2)C1)NCCc1ccccc1.O=C(O)C(=O)O	44.44%	14.77%
CCCN(CCn1c(=O)oc2ccccc21)CC1CC1	-15.45%	75.44%
O=C(c1cc(-c2cn[nH]c2)nc2cc(F)ccc12)N1CCS(=O)(=O)CC1	12.89% and -2.168%	7.264%
Cc1nc2cc(C(=O)N(CCC#N)CCC#N)ccc2n1C	-16.56%	-5.571%
Cc1cccc(-c2noc([C@@H]3C[C@@H](O)CN3C)n2)c1	-4.352% and -10.58%	-26.94%
Cc1nc(C2(O)CCCNCC2)sc1CCOc1ccc(F)cc1.Cl (stereo not shown)	8.652%	-2.521%
Cc1cc(CCC(N)=O)cc(C2CCCN2Cc2ccccn2)n1 (stereo not shown)	-1.159%	-13.52%
FC(F)(F)c1ccc(-c2noc3c2CN(CC2CCCO2)CC3)cc1 (stereo not shown)	11.34%	-6.723%
COCCNc1nnc(-c2cnc(C)cn2)s1	-18.87%	-11.28%
CCCn1cc(C(=O)N2CCCC(Cc3nccs3)C2)cn1 (stereo not shown)	17.75%	6.447%
Cc1ccc2c(c1)CN(C(=O)c1cnc(C)cn1)C(CN(C)C)CO2.Cl (stereo not shown)	-17.64%	-13.26%
CN1CCCN(C(=O)NCc2csc(Br)c2)CC1	15.27%	4.736%
CC(NC(=O)N1CCSC(C)(C)C1)c1noc(-c2ccccc2)n1 (stereo not shown)	-0.4895%	3.514%
CN(CCC(=O)N1CCc2sccc2C1)Cc1cc(Br)cs1	18.8%	21.73%
CC(C)NS(=O)(=O)c1ccccc1CNCc1cccc(O)c1	-1.223%	-4.936%
CCc1nccn1CC(=O)Nc1cccc(C(=O)OC)c1	16.68%	-3.979%
c1cnnc(N2CCCC(NCc3cccc4c3OCCCO4)C2)c1 (stereo not shown)	-9.306%	-15.52%
CCc1ncc2c(n1)CN(Cc1nc(-c3cccs3)no1)CC2	27.88% and 4.498%	-1.43%
COCCOc1ccc(NC(=O)N(CCCO)CC(C)(C)C)cn1	-89.25%	-52.24%
CN(Cc1cnn(C)c1)CC(O)c1ccc2c(c1)OCO2 (stereo not shown)	-23.89%	-0.5088%
CSc1ncccc1C(=O)NCC(c1ccco1)N(C)C (stereo not shown)	3.869% and -2.534%	-19.81%
Cc1ccc(NC2CCCN(C3Cc4ccccc4C3)C2)nn1 (stereo not shown)	-21.31% and -0.9861%	2.276%
Cc1cc(-c2cnc(N3CCNC(=O)C3)nc2-c2ccc(C)o2)on1	24.01%	-8.2%
CN1CCCc2sc(C(=O)NC3CC3)nc21	0.3975% and -51.14%	-18.02%
COC1COC2(CCN(Cc3cccc(Cl)c3)CC2)C1.O=C(O)C(F)(F)F (stereo not shown)	-18.73%	-0.4956%
Cc1noc(C)c1CN1Cc2cnn(C)c2C(COCC2CC2)C1.O=C(O)C(F)(F)F.O=C(O)C(F)(F)F (stereo not shown)	4.142%	-13.28%
c1ccc2nc(N3CCCC3)c(NCc3nnc4n3CCC4)nc2c1	6.361%	17.26%
CC(C)NC(=O)c1nc(COc2ccc3c(c2)OCO3)no1	22.73%	21.51%
Cc1cc(C)c2c(OCC(=O)N(C)CC(=O)NC(C)C)nn(C)c2n1	-23.91% and 2.698%	9.537%
O=C(O)C(F)(F)F.[H][C@@]12CCN(CCc3ccccc3)C[C@@]1([H])O[C@@H](C(=O)NCC1CC1)C2	12.29%	10.71% and -10.6%
O=C(c1cc[nH]n1)N1CCC(Nc2cccnn2)CC1	-5.917%	17.71%
CCCNC(=O)c1c(-n2cnnn2)sc2c1CCC2	-4.158% and -6.344%	-5.602%
O=C(O)C(F)(F)F.O=C1CC(c2ccncc2)C2(CCN(C(=O)c3cccs3)CC2)N1 (stereo not shown)	-70.63%	-15.84%
COCC1c2nnn(C)c2CCN1C(=O)COc1ccccc1OC (stereo not shown)	-33.21%	-15.35%
O=C(O)C1c2nc[nH]c2CCN1Cc1ccc(-c2ccccc2)s1 (stereo not shown)	-13.04%	-14.39%
O=C(NC1CC1)c1cccc(S(=O)(=O)NCCc2nc(C3CC3)no2)c1	-24.73%	-21.04%
COCCN(C)C(C(=O)O)c1ccc(F)c(C)c1 (stereo not shown)	5.312%	14.06%
COc1cc(C(=O)NCCCc2ccccc2)on1	54.04% and 37.91%	54.57%
CN(C)CC1COCCN1C(=O)c1ccccc1C(=O)c1ccccc1.O=CO (stereo not shown)	24.28%	-4.989%
CC(C)CNC(=O)c1ccc2nnc(C3CCN(S(C)(=O)=O)C3)n2c1 (stereo not shown)	-6.912%	-12.2%
Cc1nn(-c2ccccc2)nc1C(=O)N1CCCC1c1cnn(C)c1 (stereo not shown)	-14.4%	6.514%
Cc1nccc(C(=O)N2CCOC(c3nc(C(C)C)n[nH]3)C2)n1 (stereo not shown)	16.19%	4.419%
CC(C)c1cc(C(=O)N2CCCC(n3cncn3)C2)n[nH]1 (stereo not shown)	13.98%	2.696%
CCN1CCC2(CC1)OCCN2C(=O)c1ccc(OC)c(Cl)c1.Cl	-27.49%	-29.32%
O=C(NCCCn1cncn1)c1ccc(-c2ccco2)[nH]c1=O	1.313%	-26.71%
[H][C@]12CCC[C@@]1(COCC1CCOCC1)CN(C(=O)c1cccs1)C2	-12.72%	-7.628%
CCC1CN(C)c2ccccc2CN1C(=O)CCn1cncn1 (stereo not shown)	35.1%	-8.313% and -9.493%
Cn1cc(NC(=O)CCCc2cccs2)c(=O)n(C)c1=O	-36.66%	-3.644%
COCCn1ccc2cc(NC(C)=O)ccc21	-2.751% and 0.7967%	-3.181%
Nc1ncncc1-c1noc([C@@H]2CCCN2CC2CC2)n1	-0.1302% and -19.29%	-16.51%
COC(=O)CCC(=O)N1CCC2(CN(Cc3ccccc3F)C2)C1	-11.72%	-10.58%
O=C(O)C(F)(F)F.O=C(O)C(F)(F)F.c1cnc(N2CC[C@@H](N3CCOCC3)[C@@H]2Cc2ccncc2)nc1	10.98% and -8.604%	0.2304%
CC1(C(=O)N2CCOCC2)CN(Cc2ccccn2)CCO1 (stereo not shown)	-34.1%	-26.86%
CCN1CC(C(=O)N2CC(Oc3ccccc3Cl)C2)CC1=O (stereo not shown)	23.45%	0.3626% and 0.858%
CNC(=O)CN1CCOCC2(CCCN(Cc3ccoc3)C2)C1 (stereo not shown)	-5.281%	-3.852% and -3.475%

The first 3 entries again:

COc1ccc(CNC(=O)N2CCc3sccc3C2)cc1O read Mtb glucose medium: 4.499% and -25.14%; Mtb cholesterol medium: -12.71%.
COc1cccc(CNC(=O)N2CCN3CCNC(=O)C3C2)c1 (stereo not shown) read Mtb glucose medium: -10.7%; Mtb cholesterol medium: -14.11%.
O=C(NCC1CCCOC1)c1ccc(-c2ccccc2)[nH]c1=O (stereo not shown) read Mtb glucose medium: -4.959% and 10.59%; Mtb cholesterol medium: -22.56%.